No constants are given. Whether binding was seen depends on the method and setting. Binding seen in cells or lysates may run through a third protein.
Biological target: Ran-binding protein 2 (human (endogenous in HEK293)) (UniProt P49792)
Test: co-IP

Chains of the proteins cited; added tags and fusions are not shown.
UniProt P49792: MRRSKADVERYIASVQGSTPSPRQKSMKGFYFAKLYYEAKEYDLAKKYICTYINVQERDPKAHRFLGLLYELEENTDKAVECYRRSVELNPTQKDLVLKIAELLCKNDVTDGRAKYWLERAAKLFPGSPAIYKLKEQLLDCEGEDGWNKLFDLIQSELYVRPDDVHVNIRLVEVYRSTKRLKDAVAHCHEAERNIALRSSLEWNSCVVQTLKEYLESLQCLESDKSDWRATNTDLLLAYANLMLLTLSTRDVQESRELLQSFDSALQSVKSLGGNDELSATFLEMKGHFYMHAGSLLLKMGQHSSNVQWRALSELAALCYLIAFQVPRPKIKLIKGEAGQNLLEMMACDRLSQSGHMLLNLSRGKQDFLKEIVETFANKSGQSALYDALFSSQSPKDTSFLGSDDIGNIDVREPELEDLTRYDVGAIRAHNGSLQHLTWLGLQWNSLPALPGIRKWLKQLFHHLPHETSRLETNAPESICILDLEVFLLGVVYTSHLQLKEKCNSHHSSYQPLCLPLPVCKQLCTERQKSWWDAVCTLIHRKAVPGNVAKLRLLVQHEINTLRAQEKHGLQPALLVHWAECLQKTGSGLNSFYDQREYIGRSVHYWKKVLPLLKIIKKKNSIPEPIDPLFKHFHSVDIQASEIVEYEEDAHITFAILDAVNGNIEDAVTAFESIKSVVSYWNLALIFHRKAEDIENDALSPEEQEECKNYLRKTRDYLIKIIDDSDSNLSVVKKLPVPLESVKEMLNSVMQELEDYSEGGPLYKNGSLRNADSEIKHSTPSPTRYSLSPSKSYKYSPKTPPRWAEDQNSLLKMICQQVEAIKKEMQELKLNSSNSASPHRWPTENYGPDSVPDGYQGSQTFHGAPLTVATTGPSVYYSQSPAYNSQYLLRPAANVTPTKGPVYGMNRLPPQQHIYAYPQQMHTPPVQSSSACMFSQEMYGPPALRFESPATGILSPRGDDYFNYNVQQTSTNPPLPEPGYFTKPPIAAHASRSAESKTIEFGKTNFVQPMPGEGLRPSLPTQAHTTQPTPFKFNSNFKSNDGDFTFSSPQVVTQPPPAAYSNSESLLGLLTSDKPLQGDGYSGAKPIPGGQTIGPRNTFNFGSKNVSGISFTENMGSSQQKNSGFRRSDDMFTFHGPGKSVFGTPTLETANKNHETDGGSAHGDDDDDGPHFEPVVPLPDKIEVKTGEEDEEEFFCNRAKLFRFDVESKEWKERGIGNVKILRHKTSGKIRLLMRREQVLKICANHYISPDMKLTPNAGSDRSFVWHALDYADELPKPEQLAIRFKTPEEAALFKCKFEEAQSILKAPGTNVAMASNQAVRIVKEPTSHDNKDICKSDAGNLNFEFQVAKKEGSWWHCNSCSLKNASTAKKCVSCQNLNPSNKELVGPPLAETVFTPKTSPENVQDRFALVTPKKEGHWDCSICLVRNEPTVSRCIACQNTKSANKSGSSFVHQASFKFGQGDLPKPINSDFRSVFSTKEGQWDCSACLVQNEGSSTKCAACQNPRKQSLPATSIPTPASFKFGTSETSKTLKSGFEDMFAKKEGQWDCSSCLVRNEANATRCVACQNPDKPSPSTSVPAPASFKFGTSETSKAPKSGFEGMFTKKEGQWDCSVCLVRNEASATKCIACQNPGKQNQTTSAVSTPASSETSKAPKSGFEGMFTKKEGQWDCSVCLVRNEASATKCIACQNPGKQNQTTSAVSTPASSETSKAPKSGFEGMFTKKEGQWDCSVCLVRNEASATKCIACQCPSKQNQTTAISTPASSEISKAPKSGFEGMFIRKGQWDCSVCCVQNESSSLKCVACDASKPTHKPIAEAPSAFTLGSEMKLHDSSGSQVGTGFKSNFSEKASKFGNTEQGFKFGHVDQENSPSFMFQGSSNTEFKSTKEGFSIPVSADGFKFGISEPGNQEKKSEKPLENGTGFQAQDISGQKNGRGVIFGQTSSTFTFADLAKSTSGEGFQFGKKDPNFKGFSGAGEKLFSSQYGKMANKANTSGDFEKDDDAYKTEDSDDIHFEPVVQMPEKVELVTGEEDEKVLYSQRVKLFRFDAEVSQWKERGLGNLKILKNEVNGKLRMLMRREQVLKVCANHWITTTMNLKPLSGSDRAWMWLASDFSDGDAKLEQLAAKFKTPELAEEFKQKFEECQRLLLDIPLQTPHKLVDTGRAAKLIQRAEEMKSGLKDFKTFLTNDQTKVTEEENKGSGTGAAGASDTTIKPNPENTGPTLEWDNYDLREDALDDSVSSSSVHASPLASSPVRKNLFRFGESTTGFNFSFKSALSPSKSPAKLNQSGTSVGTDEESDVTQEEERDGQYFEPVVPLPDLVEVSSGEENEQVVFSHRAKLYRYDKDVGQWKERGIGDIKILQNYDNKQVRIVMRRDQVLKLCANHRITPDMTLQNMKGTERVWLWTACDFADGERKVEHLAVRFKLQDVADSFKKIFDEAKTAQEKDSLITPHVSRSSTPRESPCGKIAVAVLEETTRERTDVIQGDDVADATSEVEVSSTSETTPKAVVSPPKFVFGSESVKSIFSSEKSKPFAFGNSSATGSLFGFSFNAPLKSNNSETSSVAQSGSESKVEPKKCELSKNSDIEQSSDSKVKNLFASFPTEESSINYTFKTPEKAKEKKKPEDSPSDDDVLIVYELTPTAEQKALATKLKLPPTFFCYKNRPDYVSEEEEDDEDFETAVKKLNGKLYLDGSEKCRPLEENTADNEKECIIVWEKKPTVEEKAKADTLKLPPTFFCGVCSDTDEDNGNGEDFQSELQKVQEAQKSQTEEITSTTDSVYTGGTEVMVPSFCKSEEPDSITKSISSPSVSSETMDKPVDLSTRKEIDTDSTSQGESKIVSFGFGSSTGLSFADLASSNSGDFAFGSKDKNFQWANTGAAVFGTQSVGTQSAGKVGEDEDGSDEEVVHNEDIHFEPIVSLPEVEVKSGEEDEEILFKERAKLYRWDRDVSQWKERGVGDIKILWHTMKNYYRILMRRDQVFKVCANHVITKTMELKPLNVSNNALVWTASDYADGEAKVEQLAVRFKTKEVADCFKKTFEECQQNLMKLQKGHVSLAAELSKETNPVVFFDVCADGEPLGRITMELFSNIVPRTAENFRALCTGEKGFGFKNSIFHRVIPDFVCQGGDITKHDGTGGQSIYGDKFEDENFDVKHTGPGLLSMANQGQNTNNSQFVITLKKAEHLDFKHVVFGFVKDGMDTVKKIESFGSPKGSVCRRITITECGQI
UniProt Q93008: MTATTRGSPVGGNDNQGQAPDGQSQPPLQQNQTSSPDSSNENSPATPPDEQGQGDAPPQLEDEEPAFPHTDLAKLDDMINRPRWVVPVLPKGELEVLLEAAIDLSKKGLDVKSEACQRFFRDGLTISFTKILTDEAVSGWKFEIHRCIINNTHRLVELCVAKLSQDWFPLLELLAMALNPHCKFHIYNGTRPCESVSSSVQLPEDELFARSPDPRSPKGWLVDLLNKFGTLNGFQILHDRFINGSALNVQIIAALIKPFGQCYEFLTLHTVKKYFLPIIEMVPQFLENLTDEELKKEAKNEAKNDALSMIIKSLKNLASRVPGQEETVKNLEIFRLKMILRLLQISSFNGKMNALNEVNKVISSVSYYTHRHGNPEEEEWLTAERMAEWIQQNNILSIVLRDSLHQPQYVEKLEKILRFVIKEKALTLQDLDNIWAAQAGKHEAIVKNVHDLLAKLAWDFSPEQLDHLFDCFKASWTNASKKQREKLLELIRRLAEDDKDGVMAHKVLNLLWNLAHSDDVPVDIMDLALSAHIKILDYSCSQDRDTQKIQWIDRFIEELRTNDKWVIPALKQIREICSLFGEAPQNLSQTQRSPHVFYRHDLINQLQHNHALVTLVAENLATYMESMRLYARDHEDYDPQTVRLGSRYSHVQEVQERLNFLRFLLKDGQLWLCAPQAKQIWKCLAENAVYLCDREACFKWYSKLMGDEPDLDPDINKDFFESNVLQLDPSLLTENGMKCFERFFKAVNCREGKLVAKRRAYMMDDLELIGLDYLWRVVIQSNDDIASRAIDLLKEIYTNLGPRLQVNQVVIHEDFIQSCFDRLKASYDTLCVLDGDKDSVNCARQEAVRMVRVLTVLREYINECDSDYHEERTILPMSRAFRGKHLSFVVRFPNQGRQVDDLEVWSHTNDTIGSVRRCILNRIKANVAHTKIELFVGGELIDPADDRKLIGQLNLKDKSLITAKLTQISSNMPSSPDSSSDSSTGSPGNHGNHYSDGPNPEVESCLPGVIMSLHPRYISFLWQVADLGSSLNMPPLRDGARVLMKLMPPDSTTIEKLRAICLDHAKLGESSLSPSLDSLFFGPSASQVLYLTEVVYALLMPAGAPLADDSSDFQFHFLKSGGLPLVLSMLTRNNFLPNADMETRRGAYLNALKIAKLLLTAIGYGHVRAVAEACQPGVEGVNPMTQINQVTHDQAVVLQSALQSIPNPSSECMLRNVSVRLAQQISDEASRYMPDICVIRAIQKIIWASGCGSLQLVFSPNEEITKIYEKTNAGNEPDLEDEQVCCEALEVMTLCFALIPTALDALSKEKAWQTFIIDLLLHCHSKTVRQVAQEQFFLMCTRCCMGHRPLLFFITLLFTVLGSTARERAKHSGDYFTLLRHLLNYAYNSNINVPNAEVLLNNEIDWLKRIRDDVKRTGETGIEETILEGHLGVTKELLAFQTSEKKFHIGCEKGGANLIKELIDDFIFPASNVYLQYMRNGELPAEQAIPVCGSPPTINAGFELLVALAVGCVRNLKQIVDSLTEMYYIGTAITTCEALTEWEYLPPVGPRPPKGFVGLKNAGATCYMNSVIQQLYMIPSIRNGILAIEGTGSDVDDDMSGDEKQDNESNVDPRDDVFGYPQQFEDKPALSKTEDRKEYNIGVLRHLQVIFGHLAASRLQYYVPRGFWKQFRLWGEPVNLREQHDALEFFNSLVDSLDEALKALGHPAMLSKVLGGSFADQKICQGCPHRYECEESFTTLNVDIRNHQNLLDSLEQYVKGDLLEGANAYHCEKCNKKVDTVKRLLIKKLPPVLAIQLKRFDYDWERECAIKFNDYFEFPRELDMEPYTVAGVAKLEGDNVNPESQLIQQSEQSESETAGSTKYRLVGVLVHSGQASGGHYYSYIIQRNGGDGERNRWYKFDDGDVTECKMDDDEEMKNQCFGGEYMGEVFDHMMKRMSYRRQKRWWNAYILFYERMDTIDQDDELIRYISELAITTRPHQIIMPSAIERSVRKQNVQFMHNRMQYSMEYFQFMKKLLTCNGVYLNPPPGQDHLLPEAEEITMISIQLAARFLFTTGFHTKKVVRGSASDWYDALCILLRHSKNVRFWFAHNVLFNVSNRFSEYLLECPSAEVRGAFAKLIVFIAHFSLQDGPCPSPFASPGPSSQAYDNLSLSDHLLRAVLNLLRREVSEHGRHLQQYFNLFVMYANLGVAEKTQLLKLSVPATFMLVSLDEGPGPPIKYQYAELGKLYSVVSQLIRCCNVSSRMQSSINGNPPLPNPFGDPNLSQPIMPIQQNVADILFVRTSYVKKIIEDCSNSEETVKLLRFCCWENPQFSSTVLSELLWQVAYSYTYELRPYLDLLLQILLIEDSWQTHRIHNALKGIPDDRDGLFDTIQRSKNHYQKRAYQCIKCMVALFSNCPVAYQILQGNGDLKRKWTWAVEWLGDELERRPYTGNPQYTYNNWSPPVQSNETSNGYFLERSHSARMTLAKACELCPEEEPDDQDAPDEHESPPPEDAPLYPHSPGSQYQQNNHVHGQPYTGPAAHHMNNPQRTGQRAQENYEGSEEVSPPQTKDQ

binding: no binding
Substance: ubiquitin-specific protease 9x (from UniProt Q93008 1-2554) (enzyme)

From publication PMC9242475
